From patent publication US20180362632A1 come the findings set out here.

By UniProt entry, the sequences of proteins in these tests, tags left out. Residues count along the entry.
UniProt P04141, residues 18-144: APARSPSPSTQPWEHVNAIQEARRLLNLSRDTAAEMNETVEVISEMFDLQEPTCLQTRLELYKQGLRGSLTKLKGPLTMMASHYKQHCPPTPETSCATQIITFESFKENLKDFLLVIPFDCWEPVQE

These are yes or no findings as the source states them, for the method shown. Some results given as binding are weak or reduced against the parent protein; the word gives no strength.

The experiment addresses recombinant human GM-CSF protein (human) (UniProt P04141). The experiment is described as follows: SPR, Biacore T200.

B1: Hu50C5-18 (antibody, V domains shown)
VH: EVQLVQSGAEVKKPGSSVKVSCKASGYIFSPYSIHWVRQAPGQGLEWIGYINPSTGYIEYNQHFKDRTTLTADKSTSTAYMELRSLRSEDTAVYYCARGGDYEGYFDYWGQGTTVTVSS
VL: DIQMTQSPSSLSASVGDRVTITCRLNENIYSFLAWYQQKPGKAPKLLVYNAETLAEDVPSRFSGSGSGTDFTLTISSLQPEDFATYYCQQHYGTPYTFGGGTKVEIK
In the case of B1, the binding result is listed as “binds”.
